PubChem BioAssay AID602196 | INSERM – 2012
Screen: 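Modifiers of cisplatin sensitivity in A549 cells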. Cells: human A549 lung cancer cells. Knock-down reagent: siRNA pair against human genes. Duration: 48 h transfection before cisplatin; time from cisplatin to read-out not stated. Challenge: cisplatin at a dose killing half of control-siRNA cells; exact dose and duration not given. Detection: 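Cisplatin cell death as a shift from the 50% death seen with control siRNA; siRNAs toxic or growth-blocking alone scored 0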. Scale: two-siRNA summed score (-2 to +2): higher = both siRNAs protect from cisplatin killing; -2 means both sensitise; mean protection from cisplatin (shift in death) and protection from cisplatin (shift in death), siRNA C and protection from cisplatin (shift in death), siRNA D: higher = protection from cisplatin killing. Call rule: 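Each siRNA scores 0 if harmful alone by LDH or WST-1, otherwise +1 if it reduces and -1 if it increases cisplatin killing; a gene is active when both siRNAs agree (sum +2 or -2)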. Calls: active = both siRNAs shift cisplatin killing the same way; inactive = no consistent shift, or siRNA harmful alone.
Shown is one part, drawn at random, of about 23,000 reagents tested. In the full data, 455 (2%) were called active. 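Active includes both protection and sensitisation; some change values fall well beyond the stated -50 to +50 range.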 Unmarked entries are inactive. Reagent sequences are not shown. Not stated in the record: the amount of reagent.

target	two-siRNA summed score (-2 to +2)	mean protection from cisplatin (shift in death) (%)	protection from cisplatin (shift in death), siRNA C (%)	protection from cisplatin (shift in death), siRNA D (%)
BTBD10	0	8.7	14.2	3.2
LINC01996	1	18.2	17.1	19.4
WDR31	0	7	11.4	2.7
HOXB6	0	10.5	5.8	15.2
SCAF8	1	9.7	2.8	16.6
PNPLA1	0	22.5	9.5	35.5
SLC45A3	0	9.1	1.4	16.8
PGAM1	0	10.3	11.2	9.5
TC2N	0	6.1	4.2	7.9
UGT1A6	1	10.2	19.4	1
LOC401913	1	12.2	13.1	11.2
PAN3	0	9.4	5.1	13.7
JRK	0	-3.3	-6.1	-0.5
LOC128629	0	10.8	9.8	11.8
LOC400221	0	6.2	8	4.3
STK17B	1	13	19.6	6.5
RPL13	0	-0.7	-2.6	1.3
DNAJC17	0	-0.7	0.8	-2.1
HUS1B	0	6.8	-3.6	17.3
PTGDS	1	9.1	-4.9	23
SMOC1	0	-2	-5	1
WHR1	0	8.4	2.9	13.9
PLEKHG5	1	5	19.4	-9.4
GLMN	0	-3	-9.7	3.7
CEBPE	0	9.6	7.6	11.7
LOC440931	0	9.7	8.5	10.9
FIBIN	0	12.8	17.8	7.8
BASP1-AS1	0	5.5	4.3	6.7
NUDC	-1	-3.3	-8.7	2.2
ZNF385B	-1	-7.3	-25	10.4
OGFOD2	0	-6.2	-12.6	0.2
SGCG	0	-3.5	-4.2	-2.8
LOC400479	0	2	-0.1	4
LOC442149	0	4.4	1.9	6.8
MOV10	0	5.3	10	0.6
MGC35030	1	22.9	23	22.8
CEP152	0	1.4	6	-3.1
HCG22	1	1.4	16.6	-13.7
CD4	0	6.9	21.4	-7.6
TRIM64FP	0	5.3	10.7	-0.1
DZIP1	0	-1.5	-1.1	-1.9
SHROOM2	-1	-21.9	-8.8	-35.1
NOA1	1	12.1	8.7	15.4
MAFF	-1	-17.5	-2.3	-32.6
HSPA6	0	2.9	-3.2	9
LINC02579	0	4.5	8.4	0.7
UBE2E1	0	11.6	19.1	4.2
PLAGL2	-1	-9.8	1.7	-21.4
LOC392586	0	5.9	2.4	9.4
ATP1B1	1	18.6	19.3	17.8
HECA	1	7.3	19.6	-5
CES5A	-1	-17.4	-4.8	-29.9
CPS1	0	15	19.8	10.2
GCK	0	2.3	2.5	2.1
GAPT	1	8.4	12.6	4.1
RFWD3	0	-2.1	-4.6	0.5
NEK10	0	0.3	10.3	-9.6
CEACAM19	0	1.4	2.3	0.5
OR5AC2	0	4.6	2.2	7
LOC389031	1	19.4	30.8	8
SPAG8	1	9.4	12.6	6.1
FZD2	-1	-1.7	-14.2	10.9
LOC347424	0	-5.6	-2.4	-8.8
GEMIN5	0	-10.2	-6.6	-13.8
LOC400087	1	15.7	21.6	9.8
IL36R	0	1.7	-4.8	8.1
SYTL4	0	-4.7	6.5	-16
LOC149329	0	13.5	18.1	8.8
LOC440725	1	15	18.2	11.8
BUD13	0	2.6	1.7	3.5
FHIT	-1	-5.1	-16.8	6.6
HARS1	-1	-0.7	7.9	-9.3
FILIP1L	0	-4.9	-10.5	0.7

4 entries from above in another layout:
| target | two-siRNA summed score (-2 to +2) | mean protection from cisplatin (shift in death) (%) | protection from cisplatin (shift in death), siRNA C (%) | protection from cisplatin (shift in death), siRNA D (%) |
| --- | --- | --- | --- | --- |
| LOC440725 | 1 | 15 | 18.2 | 11.8 |
| BUD13 | 0 | 2.6 | 1.7 | 3.5 |
| FHIT | -1 | -5.1 | -16.8 | 6.6 |
| HARS1 | -1 | -0.7 | 7.9 | -9.3 |
